Test results: patent US20020103131A1, “Prevention of diabetes by administration of GnRH antagonists” (priority 2001, published 2002)
Part of at least one peptide drawing is inferred or uncertain, most often the ends. Square brackets hold non-standard residues; d marks the D form. Peptide text beside a SMILES is read from it. * marks the point of attachment. dPhe(4-Cl) = N[C@H](Cc1ccc(Cl)cc1)C(=O)O; d2Nal = N[C@H](Cc1ccc2ccccc2c1)C(=O)O; Lys(iPr) = CC(C)NCCCC[C@H](N)C(=O)O; d3Pal = N[C@H](Cc1cccnc1)C(=O)O; Nicotinoyl = O=C(c1cccnc1)*

Tests used:
[1] = tested on: gonadectomized male NOD mice; experiment: Incidence and onset of diabetes in gonadectomized male NOD mice; assay type: in vivo
Text: (§1) The well-characterized NOD mice were used throughout the study. Male and female mice were purchased from the Jackson Laboratory (Bar Harbor, Me.). These mice are art-recognized animal models used in diabetes research. (Makino et al., (1980) Breeding of a Non-obese Diabetic Strain of Mice. Exp Anim, 29, 1-13; Miyazaki, A. T., et al, (1985) Predominance of T Lymphocytes in Pancreatic Islets and Spleen in Prediabetic Non-obese Diabetic (Nod) Mice: a Longitudinal Study. Clin Exp immunol, 60, 622-630)
(§2) Both intact and gonadectomized mice (GDX) were used. […] To compare the effects of GnRH agonists and antagonists, gonadectomized animals were randomized at 14 to 18 days of age and begun immediately in one of the following main treatment groups: GnRH agonist; Antide; vehicle. One group of gonadectomized males was treated with Nal-Glu, as an additional control. […]
(§3) Total immunoglobulin G concentrations were measured by single radial immunodiffusion assay using immunodiffusion plates containing monospecific antiserum for IgG (ICN Biomedicals, Inc., Costa Mesa, Calif.). […] Glycosuria was scored by comparison to reference standards on a scale of 0 to 4 as follows: negative=0; 30 mg/dL=1; 100 mg/dL=2; 300 mg/dL=3;>1000 mg/dL=4.
(§4) Serum immunoglobulin measurements were compared by two-tailed Student's paired t-tests. Percentages of mice remaining diabetes-free was assessed by Mantel-Haenszel methodology. […]

[2] = tested on: gonadectomized NOD mice; experiment: Serum total immunoglobulin G concentrations (single radial immunodiffusion) in gonadectomized NOD mice; assay type: in vivo; details: 100 μg subcutaneously six times weekly, 8 weeks of treatment, compared to vehicle / sham operated, FIG. 1
Text: as §1, §2, §3, §4

## CC(=O)N[C@H](Cc1ccc2ccccc2c1)C(=O)N[C@H](Cc1ccc(Cl)cc1)C(=O)N[C@H](Cc1cccnc1)C(=O)N[C@@H](CO)C(=O)N[C@@H](CCCCNC(=O)c1cccnc1)C(=O)N[C@H](CCCCNC(=O)c1cccnc1)C(=O)N[C@@H](CC(C)C)C(=O)N[C@@H](CCCCNC(C)C)C(=O)N1CCC[C@H]1C(=O)N[C@H](C)C(N)=O [Antide] (Ac-[d2Nal][dPhe(4-Cl)][d3Pal]SK(Nicotinoyl)[dK](Nicotinoyl)L[Lys(iPr)]P[dA]-NH2)
[1]; 100 μg subcutaneously six times weekly, compared to vehicle, FIG. 2
  Incidence of diabetes: significantly decreased
[1]; at 60 weeks of age, compared to vehicle p=0.0025, FIG. 2
  Percentage of treated mice diabetic: 0%
[2]
  Serum IgG concentrations: reduced serum IgG concentrations to levels seen in sham operated mice
